The supplement of paper PMC7752906
Counter-ions that a name gives are not always drawn. Some of the results follow. Repeats in this data set agree poorly, so a single value says little.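 Wells held roughly 40 S. mansoni schistosomula, imaged in bright field over time against wells given 0.1% DMSO. The paper defines hits as drugs with a Mahalanobis distance of at least 2.47, three standard deviations above the DMSO control mean. Degeneracy is the proportion of worms classified as opaque.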

system: Schistosoma mansoni schistosomula; experiment: degeneracy (percent of somules classified as degenerate/opaque); higher = more parasite degeneration/death; extreme values may be limits of the assay; conditions: 10 µM; 72 h

In order of rising degeneracy:
1. COc1cc2nc(N3CCN(C(=O)C4CCCO4)CC3)nc(N)c2cc1OC (centres undefined) [Terazosin]  0%
2. O=C(O)P(=O)(O)O [Foscarnet Sodium]  0%
3. OC[C@@H](O)[C@@H](O)CO [Erythritol]  0%
4. CC(=O)c1ccc(S(=O)(=O)NC(=O)NC2CCCCC2)cc1 [Acetohexamide]  0%
5. CC(C)(C)NC[C@H](O)COc1nsnc1N1CCOCC1 [Timolol]  0%
6. CC(C)(C)NC[C@H](O)COc1nsnc1N1CCOCC1 [Timolol Maleate]  0%
7. CO/N=C(\C(=O)N[C@@H]1C(=O)N2C(C(=O)O)=C(CSc3nc(=O)c(O)nn3C)CS[C@H]12)c1csc(N)n1 [Ceftriaxone Sodium Trihydrate]  0%
8. C=C1CC[C@H](O)C/C1=C/C=C1\CCC[C@]2(C)[C@@H]([C@H](C)CCCC(C)(C)O)CC[C@@H]12 [Calcifediol]  0%
9. Cc1ccc(S(=O)(=O)NCl)cc1 [Chloramine-t]  1.89%
10. CC(C)(CO)[C@@H](O)C(=O)NCCCO [Dexpanthenol]  2.13%
11. O=C1CN2Cc3c(ccc(Cl)c3Cl)N=C2N1 [Anagrelide Hydrochloride]  2.33%
12. CN1C(=O)CC(C)(c2ccccc2)C1=O (centres undefined) [Methsuximide]  2.44%
13. CC(=O)OCC(COC(C)=O)OC(C)=O [Triacetin]  2.63%
14. CS(=O)(=O)c1ccc([C@@H](O)[C@@H](CO)NC(=O)C(Cl)Cl)cc1 [Thiamphenicol]  2.7%
15. O=C1CC[C@@H](C(=O)O)N1 [Pidolic Acid]  2.7%
16. COc1cc(C(=O)N2CCOCC2)cc(OC)c1OC [Trimetozine]  2.78%
17. CC(C)(O/N=C(\C(=O)N[C@@H]1C(=O)N2C(C(=O)[O-])=C(C[n+]3ccccc3)CS[C@H]12)c1csc(N)n1)C(=O)O [Ceftazidime]  2.94%
18. C[C@]12C=CC(=O)C=C1CC[C@@H]1[C@@H]2[C@@H](O)C[C@@]2(C)[C@H]1CC[C@]2(O)C(=O)CO [Prednisolone]  2.94%
19. Cc1cc(NC(=O)C2=C(O)c3ccccc3S(=O)(=O)N2C)no1 [Isoxicam]  2.94%
20. CC(C)C[C@H](NC(=O)[C@@H](Cc1c[nH]c2ccccc12)NC(=O)[C@H](Cc1ccc(O)cc1)NC(=O)[C@H](CO)NC(=O)[C@H](Cc1c[nH]c2ccccc12)NC(=O)[C@H](Cc1c[nH]cn1)NC(=O)[C@@H]1CCC(=O)N1)C(=O)N[C@@H](CCCNC(=N)N)C(=O)N1CCC[C@H]1C(=O)NCC(N)=O [Triptorelin]  3.23%
21. COc1ccc(CN(CCN(C)C)c2ccccn2)cc1 [Pyrilamine]  3.7%
22. CO[C@@]1(NC(=O)C(C(=O)O)c2ccc(O)cc2)C(=O)N2C(C(=O)O)=C(CSc3nnnn3C)CO[C@@H]21 (some centres undefined) [Moxalactam Disodium]  4%
23. CCOc1ccccc1C(N)=O [Ethenzamide]  4.17%
24. COC(=O)C1=C(C)NC(C)=C(C(=O)OC)C1c1ccccc1[N+](=O)[O-] [Nifedipine]  4.17%
25. C#C[C@]1(OC(C)=O)CC[C@H]2[C@@H]3CCC4=C[C@@H](OC(C)=O)CC[C@@H]4[C@H]3CC[C@@]21C [Ethynodiol Diacetate]  4.26%
26. NCCCC[C@H](N[C@@H](CCc1ccccc1)C(=O)O)C(=O)N1CCC[C@H]1C(=O)O [Lisinopril]  4.88%
27. CC(=O)N[C@@H](CC(C)C)C(=O)O [Acetyl-l-leucine]  5.13%
28. CC(=O)Nc1c(I)c(NC(C)=O)c(I)c(C(=O)O)c1I [Diatrizoic Acid]  5.26%
29. CCC1=C[C@@H]2CN(C1)Cc1c([nH]c3ccccc13)[C@@](C(=O)OC)(c1cc3c(cc1OC)N(C)[C@H]1[C@@](O)(C(=O)OC)[C@H](OC(C)=O)[C@]4(CC)C=CCN5CC[C@]31[C@@H]54)C2 [Vinorelbine]  5.56%
30. O=C(O)Cc1ccccc1Nc1c(Cl)cccc1Cl [Diclofenac]  5.56%
31. CC1CCC(NC(=O)N(CCCl)N=O)CC1 (centres undefined) [Semustine]  6.06%
32. Nc1ccc(S(=O)(=O)Nc2ccc(Cl)nn2)cc1 [Sulfachlorpyridazine]  6.06%
33. C[C@]12C=CC(=O)C=C1CC[C@@H]1[C@@H]2C(=O)C[C@@]2(C)[C@H]1CC[C@]2(O)C(=O)CO [Prednisone]  6.06%
34. Nc1nc(Cl)nc2c1ncn2[C@@H]1O[C@H](CO)[C@@H](O)[C@@H]1F [Clofarabine]  6.25%
35. OCc1ccccc1 [Benzyl Alcohol]  6.45%
36. NS(=O)(=O)c1cc2c(cc1Cl)N=C(CSCc1ccccc1)NS2(=O)=O [Benzthiazide]  6.45%
37. CC[C@H]1OC(=O)[C@H](C)[C@@H](O[C@H]2C[C@@](C)(OC)[C@@H](O)[C@H](C)O2)[C@H](C)[C@@H](O[C@@H]2O[C@H](C)C[C@H](N(C)C)[C@H]2O)[C@](C)(O)C[C@@H](C)/C(=N\OCOCCOC)[C@H](C)[C@@H](O)[C@]1(C)O [Roxithromycin]  6.52%
38. CNC(=C[N+](=O)[O-])NCCSCc1ccc(CN(C)C)o1 [Ranitidine]  7.14%
39. Nc1ccc(O)c(C(=O)O)c1 [Mesalamine]  9.09%
40. CCOC(=O)OC(C)OC(=O)[C@@H]1N2C(=O)[C@@H](NC(=O)[C@H](N)c3ccccc3)[C@H]2SC1(C)C (some centres undefined) [Bacampicillin Hydrochloride]  9.3%
41. NS(=O)(=O)c1ccc(C(=O)O)cc1 [Carzenide]  9.52%
42. CCCN[C@H]1CCc2nc(N)sc2C1 [Pramipexole]  9.52%
43. C=C1/C(=C\C=C2/CCC[C@]3(C)[C@@H]([C@H](C)CCCC(C)(C)O)CC[C@@H]23)C[C@@H](O)C[C@@H]1O [Calcitriol]  10%
44. Nc1nc(=O)c2nc(CNc3ccc(C(=O)N[C@@H](CCC(=O)O)C(=O)O)cc3)cnc2[nH]1 [Folic Acid]  10.3%
45. CN1CCN(C(c2ccccc2)c2ccc(Cl)cc2)CC1 (centres undefined) [Chlorcyclizine Hydrochloride]  10.5%
46. CCC(=O)O[C@H](CC(=O)O)C[N+](C)(C)C [Levocarnitine Propionate Hydrochloride]  11.1%
47. CCCNC(C)C(=O)Nc1ccccc1C (centres undefined) [Prilocaine]  11.1%
48. C#C[C@]1(O)CC[C@H]2[C@@H]3CCC4=CC(=O)CC[C@@H]4[C@H]3CC[C@@]21C [Norethindrone]  11.4%
49. CS(=O)(=O)Nc1ccc([N+](=O)[O-])cc1Oc1ccccc1 [Nimesulide]  12.1%
50. N=c1ccn2c(n1)O[C@H]1[C@H](O)[C@@H](CO)O[C@H]12 [Ancitabine Hydrochloride]  12.5%
51. COc1cc2c(cc1O)CC[C@@H]1[C@@H]2CC[C@]2(C)[C@@H](O)CC[C@@H]12 [2-methoxyestradiol]  13.3%
52. CNC(=C[N+](=O)[O-])NCCSCc1csc(CN(C)C)n1 [Nizatidine]  13.8%
53. CC(=O)OC/C=C(C)/C=C/C=C(C)/C=C/C1=C(C)CCCC1(C)C [Retinyl Acetate]  13.8%
54. Cc1cc(=O)oc2cc(O)ccc12 [Hymecromone]  17.4%
55. C[C@H]1C[C@H]2[C@@H]3CCC4=CC(=O)C=C[C@]4(C)[C@@]3(Cl)[C@@H](O)C[C@]2(C)[C@@]1(O)C(=O)CO [Beclomethasone]  17.8%
56. CO[C@H]1/C=C/O[C@@]2(C)Oc3c(C)c(O)c4c(c3C2=O)C2=NC3(CCN(CC(C)C)CC3)NC2=C(NC(=O)/C(C)=C\C=C\[C@H](C)[C@H](O)[C@@H](C)[C@@H](O)[C@@H](C)[C@H](OC(C)=O)[C@@H]1C)C4=O [Rifabutin]  18.8%
57. CO[C@H]1C[C@@H]2CC[C@@H](C)[C@@](O)(O2)C(=O)C(=O)N2CCCC[C@H]2C(=O)O[C@H]([C@H](C)C[C@@H]2CC[C@@H](O)[C@H](OC)C2)CC(=O)[C@H](C)/C=C(\C)[C@@H](O)[C@@H](OC)C(=O)[C@H](C)C[C@H](C)/C=C/C=C/C=C/1C [Sirolimus]  25%
58. Cc1ccc(/C(=C\CN2CCCC2)c2ccccn2)cc1 [Triprolidine Hydrochloride]  46.1%
59. COC(=O)[C@H]1[C@H]2C[C@@H]3c4[nH]c5cc(OC)ccc5c4CCN3C[C@H]2C[C@@H](OC(=O)c2cc(OC)c(OC)c(OC)c2)[C@@H]1OC [reserpine]  60%
60. Cc1nc2ccccc2n1Cc1ccc(Cl)cc1 [Chlormidazole]  62.5%
61. CO[C@H]1C[C@@H]2CC[C@@H](C)[C@@](O)(O2)C(=O)C(=O)N2CCCC[C@H]2C(=O)O[C@H]([C@H](C)C[C@@H]2CC[C@@H](O)[C@H](OC)C2)CC(=O)[C@H](C)/C=C(\C)[C@@H](O)[C@@H](OC)C(=O)[C@H](C)C[C@H](C)/C=C/C=C/C=C/1C [Rapamycin]  68.2%
62. CCCCCCCCCCCCCCCC[N+](C)(C)CCN(Cc1ccc(OC)cc1)c1ncccn1 [Thonzonium Bromide]  69.6%
63. Cc1cc2nc3ccc(N(C)C)cc3[s+]c2cc1N [Tolonium Chloride]  100%
64. CNCCC=C1c2ccccc2CCc2ccccc21 [Nortriptyline]  100%
65. O=C(N/N=C/c1ccc([N+](=O)[O-])o1)c1ccc(O)cc1 [nifuroxazide]  100%
66. C#C[C@]1(O)CC[C@H]2[C@@H]3CCc4cc(OC)ccc4[C@H]3CC[C@@]21C [Mestranol]  100%
67. CN(C)CCCN1c2ccccc2CCc2ccc(Cl)cc21 [Clomipramine]  100%
68. Cc1cc(C(C)(C)CC(C)(C)C)ccc1OCCOCC[N+](C)(C)Cc1ccccc1 [Methylbenzethonium Chloride]  100%
69. CC(COc1ccccc1)N(CCCl)Cc1ccccc1 (centres undefined) [Phenoxybenzamine]  100%
